According to patent US20120039806A1:
These are yes or no findings as the source states them, for the method shown. Sequences can lack the tags named with a protein.

Molecular target: Actin (Sigma)
Experiment: ELISA, actin coated, biotinylated soluble protein, SA-HRP

binding: no binding
B1: Cire-ecto (soluble FLAG-tagged C-type lectin Cire, control) (receptor, mouse, not shown: small tags and cut ends)
chain (part 1 of 2): NSGLHHILDAQKMVWNHR
chain (part 2 of 2): VKVYKIPSSQEENNQMNVYQELTQLKAGVDRLCRSCPWDWTHFQGSCYFFSVAQKSWNDSATACHNVGAQLVVIKSDEEQNFLQQTSKKRGYTWMGLIDMSKESTWYWVDGSPLTLSFMKYWSKGEPNNLGEEDCAEFRDDGWNDTKCTNKKFWICKKLSTSCPSK
modifications: biotinylated with BirA where the filing says 'biotinylated' (ELISA, microarray)
